# Test results: patent US20260297131A1, “COMPOSITIONS AND METHODS FOR PEPTIDE-BASED MODULATORS OF HUMAN PAPILLOMAVIRUS ONCOPROTEIN E6” (priority 2023, published 2026)
# The chains behind the UniProt entries cited, without tags or fusion partners. Residues count along the entry.
# UniProt Q00987, 25-109: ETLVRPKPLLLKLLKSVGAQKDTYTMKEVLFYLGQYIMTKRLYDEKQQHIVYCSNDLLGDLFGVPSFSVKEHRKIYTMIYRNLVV
# Part of at least one peptide drawing is inferred or uncertain, most often the ends. Side chains are listed from the residue outwards. Peptide text beside a SMILES is read from it. * marks the point of attachment. Acetyl(9-fluorenyl) = O=C(CC1c2ccccc2-c2ccccc21)*; Anthracene1carbonyl = O=C(c1cccc2cc3ccccc3cc12)*; Biotin = O=C1N[C@H]2[C@H](CS[C@H]2CCCCC(=O)*)N1; PEG4 = NCCOCCOCCOCCOCCC(=O)O
# Assays:
# MDM2 = MDM2 (Homo sapiens, UniProt Q00987); experiment: Direct BLI binding assay, SUMO-MDM2 (selectivity); conditions: peptide immobilized
# [1] = target: T1, thyroid hormone receptor alpha (THRA) (Homo sapiens, UniProt P10827); experiment: Direct BLI binding assay, THRA (selectivity); conditions: peptide immobilized
# T1 construct: BLI analyte on immobilized 6'-biotin
# T1 sequence (P10827 148-410 limits assumed): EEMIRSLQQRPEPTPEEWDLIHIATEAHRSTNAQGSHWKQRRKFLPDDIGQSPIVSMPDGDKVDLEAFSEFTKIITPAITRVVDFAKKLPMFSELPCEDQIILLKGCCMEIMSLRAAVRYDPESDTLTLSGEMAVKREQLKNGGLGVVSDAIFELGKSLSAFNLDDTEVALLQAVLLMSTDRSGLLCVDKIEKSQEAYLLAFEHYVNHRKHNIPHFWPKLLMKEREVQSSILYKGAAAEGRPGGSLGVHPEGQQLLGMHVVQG
smiles,measurement,setting,value
CC[C@H](C)[C@H](NC(=O)[C@H](CCCCNC(=O)CCOCCOCCOCCOCCNC(=O)CCCC[C@@H]1SC[C@@H]2NC(=O)N[C@@H]21)NC(=O)CC1c2ccccc2-c2ccccc21)C(=O)N1CCC[C@H]1C(=O)N[C@@H](CCC(=O)O)C(=O)N[C@@H](CO)C(=O)N[C@@H](C)C(=O)N[C@@H](CCC(=O)O)C(=O)N[C@@H](CC(C)C)C(=O)N[C@H](C(=O)N[C@@H](CC(C)C)C(=O)N[C@@H](CCC(N)=O)C(=O)N[C@@H](CCC(=O)O)C(=O)N[C@@H](CC(C)C)C(=O)N[C@@H](CC(C)C)C(=O)NCC(=O)N[C@@H](CCC(=O)O)C(=O)N[C@@H](CCC(=O)O)C(=O)N[C@@H](CCCNC(=N)N)C(=O)N[C@@H](CCCNC(=N)N)C(=O)N[C@@H](C)C(=O)N[C@@H](C)C(=O)N[C@@H](CCCCNC(=O)c1cccc2cc3ccccc3cc12)C(N)=O)[C@@H](C)O [6′-biotin] ({Acetyl(9-fluorenyl)}-K([PEG4-Biotin])IPESAELTLQELLGEERRAAK(Anthracene1carbonyl)-NH2),"signal during association or dissociation, MDM2",MDM2,No appreciable signal
same,"signal during association or dissociation, THRA",[1],No appreciable signal
